Data as given in PubChem BioAssay AID1224827 (NIAID, 2016).
In all, the deposit lists about 3,800 reagents; below is a random part of them. About 2,200 of all reagents (57%) were called active. 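Active means a strong reporter change in either direction; calls are per siRNA, not per gene; qiagen siRNAs gave weaker effects.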 Reagents against one gene are numbered here. Further read-outs or replicates are left out here.

- Screen: 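Identify regulators of the macrophage TNF-alpha response to bacterial LPS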 (follow-up of hits)
- Cell system: RAW264.7 G9 mouse macrophage reporter clone
- Reagents: single siRNA against mouse genes, 100 nM siRNA
- Time to read-out: siRNA for 2 days, then LPS about 16 h
- Challenge: bacterial lipopolysaccharide (LPS), 10 ng/ml, cells fixed after overnight (about 16 h) stimulation
- Measured: 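Imaged nuclear TNF reporter intensity, background removed, scaled per plate and to non-targeting control wells, as z-scores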
- Reading the numbers: TNF reporter z-score, mean: higher = stronger Tnf promoter reporter signal; gene median z, three same-vendor siRNAs: higher = stronger Tnf reporter signal for the gene
- Active means: 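Active siRNA: replicate-mean z-score of 2 or more, or -2 or less; no calls for control wells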

With knock-down of Spi1 (Spi-1 proto-oncogene) #1, the record shows TNF reporter z-score, mean -0.244; gene median z, three same-vendor siRNAs -2.28; inactive. After knock-down of Spi1 (Spi-1 proto-oncogene) #2, the screen gave TNF reporter z-score, mean -2.28; gene median z, three same-vendor siRNAs -2.28; active. Knock-down of Spi1 (Spi-1 proto-oncogene) #3 gave: TNF reporter z-score, mean -3.34; gene median z, three same-vendor siRNAs -2.28; active. Spi1 (Spi-1 proto-oncogene) #4 showed TNF reporter z-score, mean -1.23; gene median z, three same-vendor siRNAs -2.52; inactive. Spi1 (Spi-1 proto-oncogene) #5 scored TNF reporter z-score, mean -2.38; gene median z, three same-vendor siRNAs -2.52; active. Against Spi1 (Spi-1 proto-oncogene) #6 the deposit lists TNF reporter z-score, mean -2.95; gene median z, three same-vendor siRNAs -2.52; active.

With knock-down of Brd4 (bromodomain containing 4) #1, the screen gave TNF reporter z-score, mean -3.4; gene median z, three same-vendor siRNAs -3.84; active. After knock-down of Brd4 (bromodomain containing 4) #2 the results were TNF reporter z-score, mean -3.04; gene median z, three same-vendor siRNAs -3.84; active. Against Brd4 (bromodomain containing 4) #3 the deposit lists TNF reporter z-score, mean -5.29; gene median z, three same-vendor siRNAs -3.84; active. After knock-down of Brd4 (bromodomain containing 4) #4, the record shows TNF reporter z-score, mean 1.92; gene median z, three same-vendor siRNAs -0.187; inactive. Knock-down of Brd4 (bromodomain containing 4) #5 came out at: TNF reporter z-score, mean 0.87; gene median z, three same-vendor siRNAs -0.187; inactive. For Brd4 (bromodomain containing 4) #6, the entry reads TNF reporter z-score, mean -2.4; gene median z, three same-vendor siRNAs -0.187; active.

With knock-down of Or8g24 (olfactory receptor family 8 subfamily G member 24) #1, the screen gave TNF reporter z-score, mean -3.41; gene median z, three same-vendor siRNAs -3.71; active. For Or8g24 (olfactory receptor family 8 subfamily G member 24) #2, the entry reads TNF reporter z-score, mean -3.43; gene median z, three same-vendor siRNAs -3.71; active. Or8g24 (olfactory receptor family 8 subfamily G member 24) #3 scored TNF reporter z-score, mean -4.58; gene median z, three same-vendor siRNAs -3.71; active. Silencing of Or8g24 (olfactory receptor family 8 subfamily G member 24) #4 came out at: TNF reporter z-score, mean 1.93; gene median z, three same-vendor siRNAs 0.762; inactive. Depletion of Or8g24 (olfactory receptor family 8 subfamily G member 24) #5 resulted in: TNF reporter z-score, mean 0.274; gene median z, three same-vendor siRNAs 0.762; inactive. Depletion of Or8g24 (olfactory receptor family 8 subfamily G member 24) #6 resulted in: TNF reporter z-score, mean -0.374; gene median z, three same-vendor siRNAs 0.762; inactive.

A few values from above:
Result for Or8g24 (olfactory receptor family 8 subfamily G member 24) #5 under “gene median z, three same-vendor siRNAs”: 0.762
Result of Brd4 (bromodomain containing 4) #3 under “TNF reporter z-score, mean”: -5.29
For “gene median z, three same-vendor siRNAs”, Or8g24 (olfactory receptor family 8 subfamily G member 24) #2 has -3.71
Spi1 (Spi-1 proto-oncogene) #4, gene median z, three same-vendor siRNAs: -2.52
Or8g24 (olfactory receptor family 8 subfamily G member 24) #6, TNF reporter z-score, mean → -0.374

Next entries follow:
Hras (Hras proto-oncogene, GTPase) #1 gave TNF reporter z-score, mean 4.19; gene median z, three same-vendor siRNAs 0.835; active. Silencing of Hras (Hras proto-oncogene, GTPase) #2 resulted in: TNF reporter z-score, mean -0.88; gene median z, three same-vendor siRNAs 0.835; inactive. Against Hras (Hras proto-oncogene, GTPase) #3, the entry reads TNF reporter z-score, mean -0.711; gene median z, three same-vendor siRNAs 0.835; inactive. After knock-down of Hras (Hras proto-oncogene, GTPase) #4, the screen gave TNF reporter z-score, mean 0.317; gene median z, three same-vendor siRNAs -1.05; inactive. With knock-down of Hras (Hras proto-oncogene, GTPase) #5 the results were TNF reporter z-score, mean -1.07; gene median z, three same-vendor siRNAs -1.05; inactive. Hras (Hras proto-oncogene, GTPase) #6 showed TNF reporter z-score, mean -1.39; gene median z, three same-vendor siRNAs -1.05; inactive.

Adra1a (adrenergic receptor, alpha 1a) #1 gave TNF reporter z-score, mean 5.5; gene median z, three same-vendor siRNAs -0.211; active. Adra1a (adrenergic receptor, alpha 1a) #2 scored TNF reporter z-score, mean -0.529; gene median z, three same-vendor siRNAs -0.211; inactive. Knock-down of Adra1a (adrenergic receptor, alpha 1a) #3 gave: TNF reporter z-score, mean -1.52; gene median z, three same-vendor siRNAs -0.211; inactive. For Adra1a (adrenergic receptor, alpha 1a) #4, the entry reads TNF reporter z-score, mean -1.79; gene median z, three same-vendor siRNAs -2.27; inactive. Depletion of Adra1a (adrenergic receptor, alpha 1a) #5 gave: TNF reporter z-score, mean -2.46; gene median z, three same-vendor siRNAs -2.27; active. After knock-down of Adra1a (adrenergic receptor, alpha 1a) #6, the record shows TNF reporter z-score, mean -2.27; gene median z, three same-vendor siRNAs -2.27; active.

Acot9 (acyl-CoA thioesterase 9) #1 gave TNF reporter z-score, mean -0.553; gene median z, three same-vendor siRNAs -2.79; inactive. Acot9 (acyl-CoA thioesterase 9) #2 gave TNF reporter z-score, mean -2.79; gene median z, three same-vendor siRNAs -2.79; active. Against Acot9 (acyl-CoA thioesterase 9) #3, the entry reads TNF reporter z-score, mean -4.67; gene median z, three same-vendor siRNAs -2.79; active. With knock-down of Acot9 (acyl-CoA thioesterase 9) #4 the results were TNF reporter z-score, mean 3.28; gene median z, three same-vendor siRNAs -2.18; active. For Acot9 (acyl-CoA thioesterase 9) #5 the deposit lists TNF reporter z-score, mean -2.18; gene median z, three same-vendor siRNAs -2.18; active. Acot9 (acyl-CoA thioesterase 9) #6 showed TNF reporter z-score, mean -3.5; gene median z, three same-vendor siRNAs -2.18; active.

For Dap3 (death associated protein 3) #1, the values are TNF reporter z-score, mean 0.855; gene median z, three same-vendor siRNAs -3.1; inactive. Dap3 (death associated protein 3) #2 gave TNF reporter z-score, mean -3.42; gene median z, three same-vendor siRNAs -3.1; active. Knock-down of Dap3 (death associated protein 3) #3 gave: TNF reporter z-score, mean -3.32; gene median z, three same-vendor siRNAs -3.1; active. With knock-down of Dap3 (death associated protein 3) #4, the screen gave TNF reporter z-score, mean -0.26; gene median z, three same-vendor siRNAs -0.771; inactive. Dap3 (death associated protein 3) #5 scored TNF reporter z-score, mean -0.771; gene median z, three same-vendor siRNAs -0.771; inactive. Depletion of Dap3 (death associated protein 3) #6 gave: TNF reporter z-score, mean -0.648; gene median z, three same-vendor siRNAs -0.771; inactive.
